Laboratory results: publication PMC8415707 (Frontiers in Pharmacology, 2021)
Converted amounts (≈) assume the structure as drawn.

System: Staphylococcus aureus ATCC 25923
Assay: Antimicrobial assay (MIC, two-fold dilution)
Assay type: cell-based
Conditions: ATCC25923, 14 h
Description: The antimicrobial activity of FM-CATH was measured using two-fold dilution method as reported previously by us ([Ye et al., 2020]). Microorganisms bought from Guangdong Institute of Microbiology were cultured in Muller-Hinton (MH) broth at 37°C to exponential phase and subsequently diluted with fresh MH broth to reach 10^6 CFU/ml of density. An equal volume of microbial inoculums in 96-well plates was incubated with different concentrations of FM-CATH at 37°C for 14 h. The absorbance at 600 nm was measured by a microplate spectrophotometer (Infinite M1000 Pro, Tecan Company, Switzerland) to calculate the minimal inhibitory concentration (MIC) values. […] Ampicillin and polymyxin B were used as positive controls.

MIC: 25 µM (≈ 8.74 µg/mL)
Structure (SMILES): CC1(C)S[C@@H]2[C@H](NC(=O)[C@H](N)c3ccccc3)C(=O)N2[C@H]1C(=O)O [Ampicillin]
